{
  "sequences": {"note": "By UniProt entry, the sequences of proteins in these tests, tags left out. Where a name states a change or a piece, a line headed by the entry shows the natural chain unless it says otherwise. Residues count along the entry.", "UniProt Q9BY78, whole entry": "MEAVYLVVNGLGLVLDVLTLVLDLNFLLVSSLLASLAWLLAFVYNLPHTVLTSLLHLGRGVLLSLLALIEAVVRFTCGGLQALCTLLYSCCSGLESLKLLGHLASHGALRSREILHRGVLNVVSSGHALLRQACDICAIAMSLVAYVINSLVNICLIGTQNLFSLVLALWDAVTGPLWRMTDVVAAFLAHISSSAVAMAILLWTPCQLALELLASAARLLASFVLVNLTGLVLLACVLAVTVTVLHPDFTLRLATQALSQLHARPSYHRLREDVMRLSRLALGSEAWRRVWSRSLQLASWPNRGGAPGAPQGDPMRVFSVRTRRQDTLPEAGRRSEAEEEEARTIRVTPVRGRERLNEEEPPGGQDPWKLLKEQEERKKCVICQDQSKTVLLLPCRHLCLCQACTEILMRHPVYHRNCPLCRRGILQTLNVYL", "UniProt Q9BY78, 1-422, stated change not applied": "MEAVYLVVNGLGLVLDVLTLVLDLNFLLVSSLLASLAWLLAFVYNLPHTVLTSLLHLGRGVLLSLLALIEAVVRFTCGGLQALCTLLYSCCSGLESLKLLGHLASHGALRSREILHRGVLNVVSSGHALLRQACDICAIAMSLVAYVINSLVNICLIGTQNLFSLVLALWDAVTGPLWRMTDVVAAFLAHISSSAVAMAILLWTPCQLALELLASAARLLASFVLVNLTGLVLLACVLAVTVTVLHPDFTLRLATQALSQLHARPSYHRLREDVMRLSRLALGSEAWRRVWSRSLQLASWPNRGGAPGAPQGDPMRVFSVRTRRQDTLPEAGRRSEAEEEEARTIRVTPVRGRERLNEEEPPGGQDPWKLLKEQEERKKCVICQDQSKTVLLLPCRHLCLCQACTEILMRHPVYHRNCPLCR"},
  "source": "paper doi:10.1101/2022.03.24.485587",
  "experiment_in_all_cases": "proximity labelling",
  "key": {"[1]": {"target": "2HA-TurboID-RNF26 I382R (UniProt Q9BY78)"}, "[2]": {"target": "2HA-TurboID-RNF26 IR/Δ423-432 (UniProt Q9BY78)"}, "[3]": {"target": "2HA-TurboID-RNF26 WT/Δ423-432 (UniProt Q9BY78)"}, "[4]": {"target": "2HA-TurboID-RNF26 Y432A (UniProt Q9BY78)"}, "[5]": {"target": "2HA-TurboID-RNF26 wild-type (UniProt Q9BY78)"}},
  "note": "No constants are given. Whether binding was seen depends on the method and setting. Binding seen in cells or lysates may run through a third protein. These calls come from enrichment with a bait or labelling near it, and not all partners need be listed. For some assays here: No binding means not detected with the bait.",
  "data": [
    {"substance": "Vimentin (from UniProt P08670 1-466)", "values": [
      {"measurement": "binding", "setting": "[1]", "value": "binds"},
      {"measurement": "binding", "setting": "[2]", "value": "no binding"},
      {"measurement": "binding", "setting": "[3]", "value": "no binding"},
      {"measurement": "binding", "setting": "[4]", "value": "binds"},
      {"measurement": "binding", "setting": "[5]", "value": "binds"}
    ]}
  ]
}
